Values quoted from earlier work in patent publication US7101912B2, “Carbidopa prodrugs and derivatives, and compositions and uses thereof” (XenoPort, Inc., priority 2002, dated 2006).
Read-outs that look alike come from different tables or passages of the source.

Details: patients

- half-life of levodopa in plasma (administered alone): about 50 min
- half-life of levodopa in plasma (given with carbidopa): 1 to 2 h
Structure (SMILES): N[C@@H](Cc1ccc(O)c(O)c1)C(=O)O [levodopa, L-3,4-dihydroxyphenylalanine]
